Source: patent US4758312A, “Method for in situ corrosion detection using electrochemically active compounds” (Nalco Chemical Company, priority 1987, dated 1988)
For at least one compound, name, drawing or mass did not settle the structure.

Assay: Commercial tetrazolium compounds, detection of iron corrosion (Example 4)

Question: Which “Time to Color” value does the source give for `c1ccc(-c2nn(-c3ccccc3)[n+](-c3ccccc3)n2)cc1` [Compound 9 (Table 6), 2,3,5-triphenyltetrazolium chloride] here?
Answer: Its value is 80 min.
